Some of these results come from one statement about several compounds together. For some assays here: For at least one compound, name, drawing or mass did not settle the structure.
Assays:
Format in all cases: in vivo
Sphaerotheca fuliginea = test: Sphaerotheca test (cucumber) / protective; conditions: 500 ppm active compound, evaluation 7 days after inoculation
Method: Sphaerotheca Test (Cucumber)/Protective
Solvent: 49 parts by weight of N,N-dimethylformamide
Emulsifier: 1 part by weight of alkylaryl polyglycol ether
To produce a suitable preparation of active compound, 1 part by weight of active compound is mixed with the stated amounts of solvent and emulsifier, and the concentrate is diluted with water to the desired concentration.
To test for protective activity, young cucumber plants are sprayed with the active compound preparation at the stated application rate. 1 day after the treatment, the plants are inoculated with a spore suspension of Sphaerotheca fuliginea. The plants are then placed in a greenhouse at 70% relative atmospheric humidity and a temperature of 23° C.
Evaluation is carried out 7 days after the inoculation. 0% means an efficacy which corresponds to that of the control, whereas an efficacy of 100% means that no infection is observed.

[1] = test system: Erysiphe graminis fsp. hordei; test: Erysiphe test (barley) / protective; conditions: 1000 ppm active compound, evaluation 7 days after inoculation
Puccinia recondita = test: Puccinia test (wheat) / protective; conditions: 1000 ppm active compound, evaluation 10 days after inoculation

Row | Structure (SMILES) | efficacy (Sphaerotheca fuliginea) | efficacy [1] | efficacy (Puccinia recondita)
1 | CCN(C)C=Nc1cc(C)c(/C(C)=N/OCc2ccc(F)cc2)cc1C [Compound 26] | ≥ 70% |  | 
2 | CCN(C)C=Nc1cc(C)c(/C(C)=N/OC(C)c2ccc(Cl)cc2)cc1C (centres unmarked) [Compound 38, N′-(4-{(1E)-N-[1-(4-chlorophenyl)ethoxy]ethanimidoyl}-2,5-dimethylphenyl)-N-ethyl-N-methylimidoformamide] |  | ≥ 70% | ≥ 70%
3 | CCN(C)C=Nc1cc(C)c(/C=N/OC(C)(C)C)cc1C [Compound 39, N′-{4-[(E)-(tert-butoxyimino)methyl]-2,5-dimethylphenyl}-N-ethyl-N-methylimidoformamide] |  | ≥ 70% | ≥ 70%

Source: patent publication US8785692B2, “Substituted phenylamidines and the use thereof as fungicides” (priority 2007, dated 2014)
